The supplement of paper PMC3334620
Over roughly 33,000 sequences, “E-score (-0.5 to 0.5)” has its median near -0.0059; the highest 2% begin near 0.26. The list shows a part of the results.

Target: T1, Cin5 (UniProt P40917)
T1 sequence: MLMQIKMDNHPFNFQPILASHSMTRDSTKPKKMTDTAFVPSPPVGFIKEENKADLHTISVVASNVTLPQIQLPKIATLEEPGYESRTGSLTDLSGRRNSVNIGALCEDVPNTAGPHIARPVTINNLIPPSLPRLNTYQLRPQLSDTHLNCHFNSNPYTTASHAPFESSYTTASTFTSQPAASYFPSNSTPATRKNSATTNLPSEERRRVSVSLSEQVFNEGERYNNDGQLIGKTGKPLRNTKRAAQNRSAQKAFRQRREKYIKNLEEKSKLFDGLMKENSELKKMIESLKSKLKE
Assay: PBM E-score (8-mer binding enrichment) (E-score (-0.5 to 0.5)); higher = stronger / more preferred TF binding
Details: protein concentration: 100 nM; construct: GST-full length
Procedure, shortened: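 Each ungapped eight-base word and its reverse complement, pooled, received an E-score from the Universal PBM Analysis Suite. Underlying scans, normalised with masliner, recorded fluorescent anti-GST bound to GST-tagged yeast transcription factors. These were applied at about 100-200 nM to universal all-10-mer Agilent arrays double-stranded by primer extension.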

Row | Sequence | PBM E-score
1 | CAGACGTC | -0.133
2 | CGCGAATA | 0.222
3 | CCGTGAAC | -0.0879
4 | CGATTTTA | 0.102
5 | AAGGTTCT | -0.0108
6 | CTATGTCC | -0.118
7 | CCTGGTTC | -0.0432
8 | ATACGGAC | -0.0541
9 | AAGAAAAC | 0.0459
10 | ATATCGAA | 0.221
11 | ACGATCTC | -0.149
12 | AACAGGCA | -0.0483
13 | GTCACCCA | -0.00586
14 | CTTACACA | 0.259
15 | GAGCGCCA | -0.158
16 | CGTTTAGA | 0.0309
17 | CACGTTGG | -0.0725
18 | GTAGCAAC | 0.00568
19 | CACCGCAG | -0.105
20 | ACGGCGCG | 0.0464
21 | ACTCCATA | -0.106
22 | ATAGCCGC | -0.122
23 | CGTCGACC | -0.00147
24 | AAGACCAG | -0.0562
25 | AACTACGC | -0.00929

Row | Sequence | PBM E-score
26 | GTCCACAC | 0.0151
27 | GATATATC | 0.1
28 | ACTGAGTA | 0.124
29 | CTGGAATA | 0.181
30 | CGTCTGCC | -0.186
31 | ATTCTTGC | 0.0997
32 | GCTCGGAC | -0.085
33 | ACAGCAAA | 0.0822
34 | CGTGGAAA | 0.28
35 | AGAGCATA | -0.105
36 | CGCAGCAC | -0.0528
37 | AATATGGG | 0.0723
38 | ACATACAT | 0.229
39 | CTTGCTCA | -0.203
40 | GCCGGAAC | 0.0891
41 | ATAGTTCA | 0.106
42 | AATCCCGA | 0.26
43 | ATAATGCA | 0.0778
44 | ACATTTCA | 0.185
45 | AGTTGCAT | 0.122
46 | ACACCCGG | -0.0164
47 | ACATGCCG | 0.0535
48 | AAGGACGT | -0.0436
49 | TATGGGGA | 0.27
50 | ATCGGTAC | 0.0519

Row | Sequence | PBM E-score
51 | TAGCGCTA | -0.106
52 | ATCATAGA | 0.172
53 | CTATCGTC | -0.0983
54 | CTGGCTTC | -0.213
55 | ACGAAAAC | 0.201
56 | AAAGTCGT | 0.00718
57 | AAGCGGCT | 0.126
58 | CAAAACTG | 0.0853
59 | ATCCCAAC | 0.0399
60 | ACAGGCGA | -0.14
61 | CTAGTAAA | 0.165
62 | ATTAAACG | 0.178
63 | CGACTGCC | -0.191
64 | ACAGCTCG | -0.0204
65 | GACCTTCA | -0.124
66 | AGCAGCCG | 0.0345
67 | AGAATGCG | 0.0465
68 | TCAGCCAA | 0.104
69 | ATCTCGCA | 0.00313
70 | AAGACTAA | 0.0967
71 | TGATGGAA | 0.0629
72 | ATGTCACA | 0.213
73 | GTTTAAAA | 0.0736
74 | AATGTGAG | 0.0644
75 | CCTTTGAC | -0.218

Row | Sequence | PBM E-score
76 | CTCTTGGC | -0.112
77 | CGCGTCAC | -0.109
78 | GCCATTGA | 0.184
79 | ATTTCAGG | 0.0318
80 | CCAACTTA | 0.0207
81 | GAAGCTGC | -0.0618
82 | AAGTGACC | -0.0423
83 | ATGTTGGC | 0.059
84 | CGAAGGCA | -0.181
85 | AGGCATTG | -0.051
86 | GGACACTA | -0.0121
87 | AGTATCGA | 0.253
88 | ACACCCAA | 0.0796
89 | CGACAGCG | -0.104
90 | TACGAATA | 0.2
91 | ACAGGACA | 0.0466
92 | CGCACTGA | -0.0636
93 | ACCCGCCG | 0.0697
94 | GCTAAGGA | -0.146
95 | CTAGCGTA | -0.166
96 | AGACTAGC | -0.273
97 | AAGTTGCT | -0.00447
98 | ACCTGTTA | -0.145
99 | CTCACCGA | -0.0769
100 | GTACCTAC | -0.182

2 entries from above in a different format.
Row,Sequence,PBM E-score
50,ATCGGTAC,0.0519
51,TAGCGCTA,-0.106

(cont.)

Row | Sequence | PBM E-score
101 | ACTTTTGC | 0.0876
102 | GGTGTTCA | -0.0704
103 | CGAGCTGA | 0.175
104 | AGCAGCAT | -0.072
105 | AGGTGACC | -0.264
106 | TCCTGGAA | -0.115
107 | ACTACTCC | 0.0696
108 | GATGTATA | 0.0788
109 | CCCACACC | 0.0203
110 | ACCGACGC | -0.144
111 | AACTTCTG | -0.089
112 | CCGCGTAC | -0.0547
113 | CCAAGGGA | -0.177
114 | CACGGCGA | 0.00899
115 | CCTTCACA | -0.065
116 | ACACCAAG | -0.0243
117 | CTGACGGA | -0.0319
118 | AATCGAGC | 0.138
119 | GACTGCCC | -0.188
120 | GATGGAGC | -0.162
121 | AAGGCTAA | 0.0241
122 | GAAAGCAC | 0.0242
123 | ATGAATCG | 0.00784
124 | ACACTTAG | 0.0487
125 | GCAGTGGA | 0.00045

Row | Sequence | PBM E-score
126 | GATTACGA | 0.434
127 | AGCGGGAC | -0.11
128 | CCTGCAGA | -0.0299
129 | GCGTCGTA | 0.0768
130 | AACCGCCC | -0.178
131 | CACAATGC | 0.107
132 | GTTTGTAA | 0.0206
133 | CCCAGATC | -0.26
134 | ACATTCTG | -0.0435
135 | CAAGAGTC | -0.207
136 | GCATAACC | -0.124
137 | ATACCCGG | -0.133
138 | CACTGGGG | -0.176
139 | CAGACAAA | 0.0571
140 | ATGGAAAC | 0.101
141 | CCTAACTA | -0.0602
142 | CGCTCCCA | -0.204
143 | CTACACAA | 0.115
144 | GGCACCCA | -0.171
145 | CCTCCATA | -0.147
146 | ATAGCCGG | -0.0696
147 | AAAGCGTT | 0.0053
148 | CCCGTAGG | -0.149
149 | CGAGTTAG | 0.0686
150 | GACAGGGA | -0.113

Row | Sequence | PBM E-score
151 | AGCGGGGG | -0.366
152 | CAGGCGAA | -0.0664
153 | AATAGTAA | 0.27
154 | ATGGCCCG | -0.0742
155 | AAGGCTCA | -0.137
156 | AAGTTGCC | -0.0351
157 | GCTGACAC | 0.0863
158 | TACTCTAA | 0.043
159 | AGGGGTCA | -0.0837
160 | CATTCGTA | 0.0849
161 | ACATCATG | 0.0711
162 | CCTGCAAG | -0.215
163 | CGAAGACA | -0.0454
164 | AGGCACTG | -0.0822
165 | TGACGGAA | 0.24
166 | AGAGCCCT | -0.266
167 | AACGCGCT | -0.0706
168 | CCACTGGC | -0.0753
169 | GCAAATTA | 0.115
170 | CGGCGAGC | 0.0191
171 | GCGATAAA | 0.14
172 | ACTGGGAG | -0.0689
173 | CGATCAAG | -0.0749
174 | AGTTACTA | 0.0688
175 | GACTAGGA | -0.0728

Individual results from above:
Value for AAGTTGCC under PBM E-score: -0.0351
Value for CCTGCAAG under PBM E-score: -0.215
Value for TGACGGAA under PBM E-score: 0.24
Value for GCTGACAC under PBM E-score: 0.0863
Value for AATAGTAA under PBM E-score: 0.27
Value for AGTTACTA under PBM E-score: 0.0688
Value for ACATCATG under PBM E-score: 0.0711

More records follow.

Row | Sequence | PBM E-score
176 | CTGGCCTA | -0.097
177 | GAGCAACA | -0.148
178 | CACGGCTA | -0.154
179 | AACTATCG | 0.0548
180 | GCGAGATA | 0.0992
181 | TCGGACCA | -0.084
182 | CTATGACC | -0.102
183 | ACGAGAGC | -0.028
184 | AGGGCTAA | -0.113
185 | ACTAGCTA | 0.0677
186 | CCTTTCGA | -0.125
187 | GCGCTTTA | 0.0372
188 | CGCTTCAA | -0.1
189 | AGTTCTTC | -0.0185
190 | ACTACACG | 0.137
191 | ATCTTTTG | -0.0757
192 | GATACCCA | 0.0476
193 | AACGCTCC | -0.123
194 | GACCCACC | 0.00764
195 | AAAGTGAT | -0.00439
196 | CAATCTGG | 0.0546
197 | CACATTAA | 0.102
198 | TAGATCAA | 0.0289
199 | GCACGATA | 0.105
200 | AAAGCGTA | -0.0195

Row | Sequence | PBM E-score
201 | ACTAAAGC | 0.017
202 | GCATGTAA | 0.057
203 | AGCCTGAC | -0.191
204 | ACCTCTCT | -0.0644
205 | ATCAGGCA | 0.0396
206 | AAACAGCC | -0.0263
207 | GCTACGAA | 0.00847
208 | ATGATTGG | 0.101
209 | ACTCATCC | 0.0731
210 | CATACCTC | -0.0152
211 | ACGTCTAT | -0.0448
212 | CGTCCGGA | 0.00776
213 | CCTGGGCA | -0.326
214 | ATTAAGCG | 0.211
215 | CACGTATA | 0.0182
216 | TAACCTCA | -0.104
217 | AAATCTGA | 0.129
218 | AGCTATGA | -0.0157
219 | CATCGGAC | -0.221
